Assay results taken from the supplement of paper PMC6411743.
± gives the standard deviation of the averaged measurements. This is a selection; strong and weak results do not stand in their true shares.

Sequences of proteins named here, by UniProt entry; tags and fusion partners are left off. A change or cut given only in a name is not applied to a line headed by its entry.
UniProt Q9UMX0, whole entry: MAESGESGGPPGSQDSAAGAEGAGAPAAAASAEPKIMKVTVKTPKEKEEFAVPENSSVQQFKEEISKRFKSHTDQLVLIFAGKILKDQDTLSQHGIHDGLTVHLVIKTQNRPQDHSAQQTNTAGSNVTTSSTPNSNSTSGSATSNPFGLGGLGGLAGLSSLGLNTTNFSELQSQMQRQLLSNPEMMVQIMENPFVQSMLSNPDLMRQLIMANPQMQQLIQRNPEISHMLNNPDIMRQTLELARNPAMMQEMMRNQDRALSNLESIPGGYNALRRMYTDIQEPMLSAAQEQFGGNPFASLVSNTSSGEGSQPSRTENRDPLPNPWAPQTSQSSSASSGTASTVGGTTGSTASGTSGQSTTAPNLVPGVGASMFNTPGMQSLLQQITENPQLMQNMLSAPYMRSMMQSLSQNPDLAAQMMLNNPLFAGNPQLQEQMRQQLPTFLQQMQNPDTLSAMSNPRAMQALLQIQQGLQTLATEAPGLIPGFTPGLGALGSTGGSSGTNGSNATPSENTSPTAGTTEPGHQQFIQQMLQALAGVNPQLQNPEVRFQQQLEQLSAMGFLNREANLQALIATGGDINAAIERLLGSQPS
UniProt Q9UBU8, whole entry: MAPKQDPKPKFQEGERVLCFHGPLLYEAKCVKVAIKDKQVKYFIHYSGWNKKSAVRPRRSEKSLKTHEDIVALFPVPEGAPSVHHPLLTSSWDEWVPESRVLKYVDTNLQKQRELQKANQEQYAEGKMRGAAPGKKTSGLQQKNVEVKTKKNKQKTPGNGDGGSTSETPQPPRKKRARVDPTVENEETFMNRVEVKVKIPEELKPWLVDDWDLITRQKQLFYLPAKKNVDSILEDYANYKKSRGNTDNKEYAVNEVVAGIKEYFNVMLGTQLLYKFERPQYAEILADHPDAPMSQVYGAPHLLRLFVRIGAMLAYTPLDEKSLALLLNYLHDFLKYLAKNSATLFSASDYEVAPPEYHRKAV
UniProt Q9UHI6: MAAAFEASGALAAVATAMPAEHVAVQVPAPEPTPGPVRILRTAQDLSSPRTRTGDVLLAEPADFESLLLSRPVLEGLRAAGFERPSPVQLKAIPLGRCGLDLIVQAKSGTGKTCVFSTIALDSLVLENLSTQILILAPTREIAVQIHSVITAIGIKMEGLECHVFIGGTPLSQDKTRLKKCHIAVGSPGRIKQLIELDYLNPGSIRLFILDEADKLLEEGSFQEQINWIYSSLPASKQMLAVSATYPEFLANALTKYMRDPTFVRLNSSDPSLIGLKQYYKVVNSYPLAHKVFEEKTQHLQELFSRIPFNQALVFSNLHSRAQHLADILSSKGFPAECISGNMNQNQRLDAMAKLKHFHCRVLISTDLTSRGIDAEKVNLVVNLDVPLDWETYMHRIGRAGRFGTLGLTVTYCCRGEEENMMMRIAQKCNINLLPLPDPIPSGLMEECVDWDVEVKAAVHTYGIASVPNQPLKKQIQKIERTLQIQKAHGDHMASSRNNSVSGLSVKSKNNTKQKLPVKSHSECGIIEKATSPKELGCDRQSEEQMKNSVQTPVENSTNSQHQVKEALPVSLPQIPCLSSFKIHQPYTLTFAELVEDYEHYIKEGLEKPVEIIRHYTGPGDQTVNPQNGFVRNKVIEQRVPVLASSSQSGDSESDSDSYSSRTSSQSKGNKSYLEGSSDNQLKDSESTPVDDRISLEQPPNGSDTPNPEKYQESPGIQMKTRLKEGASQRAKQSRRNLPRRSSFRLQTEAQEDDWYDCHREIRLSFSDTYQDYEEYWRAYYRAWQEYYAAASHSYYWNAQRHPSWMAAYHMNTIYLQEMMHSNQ
UniProt Q9UKW4: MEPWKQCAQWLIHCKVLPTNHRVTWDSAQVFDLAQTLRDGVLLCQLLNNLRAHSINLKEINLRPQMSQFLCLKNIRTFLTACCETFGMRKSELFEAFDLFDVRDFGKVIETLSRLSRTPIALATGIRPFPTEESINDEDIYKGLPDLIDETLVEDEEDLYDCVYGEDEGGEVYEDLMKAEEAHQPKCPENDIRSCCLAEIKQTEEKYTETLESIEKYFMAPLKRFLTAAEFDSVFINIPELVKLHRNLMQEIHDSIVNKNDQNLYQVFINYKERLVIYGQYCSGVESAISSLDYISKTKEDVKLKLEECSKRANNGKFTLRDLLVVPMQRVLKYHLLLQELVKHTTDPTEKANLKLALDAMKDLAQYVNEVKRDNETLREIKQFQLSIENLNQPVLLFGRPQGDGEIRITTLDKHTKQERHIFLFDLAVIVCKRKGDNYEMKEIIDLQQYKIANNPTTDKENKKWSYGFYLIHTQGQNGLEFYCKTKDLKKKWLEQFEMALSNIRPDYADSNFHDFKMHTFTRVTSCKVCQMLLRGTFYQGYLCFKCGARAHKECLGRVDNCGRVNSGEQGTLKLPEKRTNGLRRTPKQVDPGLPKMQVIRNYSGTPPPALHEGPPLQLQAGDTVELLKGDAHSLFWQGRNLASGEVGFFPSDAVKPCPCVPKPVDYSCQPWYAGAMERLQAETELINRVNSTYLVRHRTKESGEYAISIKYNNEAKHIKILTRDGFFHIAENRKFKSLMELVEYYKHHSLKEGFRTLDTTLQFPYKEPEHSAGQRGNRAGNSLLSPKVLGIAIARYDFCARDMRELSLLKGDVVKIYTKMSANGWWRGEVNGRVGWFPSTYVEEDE
UniProt Q9UBS9: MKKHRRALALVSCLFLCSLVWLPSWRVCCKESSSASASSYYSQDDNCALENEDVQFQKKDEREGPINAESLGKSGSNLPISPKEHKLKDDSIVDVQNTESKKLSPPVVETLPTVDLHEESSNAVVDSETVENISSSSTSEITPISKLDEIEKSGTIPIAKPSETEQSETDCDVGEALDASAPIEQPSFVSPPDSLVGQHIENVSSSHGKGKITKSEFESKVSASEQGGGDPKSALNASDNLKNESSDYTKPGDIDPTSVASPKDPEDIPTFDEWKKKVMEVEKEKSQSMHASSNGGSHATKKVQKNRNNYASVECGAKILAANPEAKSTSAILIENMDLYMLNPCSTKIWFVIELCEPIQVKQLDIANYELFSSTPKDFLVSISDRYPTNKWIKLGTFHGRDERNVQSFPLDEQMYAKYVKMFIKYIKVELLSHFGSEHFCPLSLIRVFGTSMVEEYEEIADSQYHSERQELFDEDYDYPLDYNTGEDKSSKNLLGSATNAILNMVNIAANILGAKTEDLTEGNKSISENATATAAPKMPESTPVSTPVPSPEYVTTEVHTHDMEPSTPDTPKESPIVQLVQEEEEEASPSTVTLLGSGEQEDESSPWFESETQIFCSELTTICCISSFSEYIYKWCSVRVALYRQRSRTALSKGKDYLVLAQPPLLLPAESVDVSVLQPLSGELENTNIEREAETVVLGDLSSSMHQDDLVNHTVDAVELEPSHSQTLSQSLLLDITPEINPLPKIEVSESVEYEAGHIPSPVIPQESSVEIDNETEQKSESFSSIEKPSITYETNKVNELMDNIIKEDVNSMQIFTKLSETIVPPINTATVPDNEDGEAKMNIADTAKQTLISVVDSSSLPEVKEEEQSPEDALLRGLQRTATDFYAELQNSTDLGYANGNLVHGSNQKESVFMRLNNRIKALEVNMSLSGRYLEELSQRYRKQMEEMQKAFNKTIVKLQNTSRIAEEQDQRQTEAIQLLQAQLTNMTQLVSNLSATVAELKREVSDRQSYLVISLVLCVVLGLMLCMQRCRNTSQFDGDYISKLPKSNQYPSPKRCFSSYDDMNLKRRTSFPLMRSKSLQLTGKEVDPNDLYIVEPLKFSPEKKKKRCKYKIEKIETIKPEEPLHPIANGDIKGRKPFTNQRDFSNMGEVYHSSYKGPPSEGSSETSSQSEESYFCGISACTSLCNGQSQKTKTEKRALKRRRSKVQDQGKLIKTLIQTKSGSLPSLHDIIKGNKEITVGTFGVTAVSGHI
UniProt Q9UBS8: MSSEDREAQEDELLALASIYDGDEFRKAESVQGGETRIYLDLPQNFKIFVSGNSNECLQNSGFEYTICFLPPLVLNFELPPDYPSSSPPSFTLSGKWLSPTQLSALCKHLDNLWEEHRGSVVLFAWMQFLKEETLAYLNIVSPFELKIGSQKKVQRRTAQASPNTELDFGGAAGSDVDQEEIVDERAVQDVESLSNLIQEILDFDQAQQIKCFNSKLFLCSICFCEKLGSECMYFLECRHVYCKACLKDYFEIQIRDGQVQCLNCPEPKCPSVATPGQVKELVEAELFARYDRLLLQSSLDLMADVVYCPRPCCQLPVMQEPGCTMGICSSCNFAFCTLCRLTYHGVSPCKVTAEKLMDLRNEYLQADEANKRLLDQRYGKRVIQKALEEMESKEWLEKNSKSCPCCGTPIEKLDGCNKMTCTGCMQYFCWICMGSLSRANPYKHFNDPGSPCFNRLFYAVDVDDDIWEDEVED
UniProt Q9UJT0: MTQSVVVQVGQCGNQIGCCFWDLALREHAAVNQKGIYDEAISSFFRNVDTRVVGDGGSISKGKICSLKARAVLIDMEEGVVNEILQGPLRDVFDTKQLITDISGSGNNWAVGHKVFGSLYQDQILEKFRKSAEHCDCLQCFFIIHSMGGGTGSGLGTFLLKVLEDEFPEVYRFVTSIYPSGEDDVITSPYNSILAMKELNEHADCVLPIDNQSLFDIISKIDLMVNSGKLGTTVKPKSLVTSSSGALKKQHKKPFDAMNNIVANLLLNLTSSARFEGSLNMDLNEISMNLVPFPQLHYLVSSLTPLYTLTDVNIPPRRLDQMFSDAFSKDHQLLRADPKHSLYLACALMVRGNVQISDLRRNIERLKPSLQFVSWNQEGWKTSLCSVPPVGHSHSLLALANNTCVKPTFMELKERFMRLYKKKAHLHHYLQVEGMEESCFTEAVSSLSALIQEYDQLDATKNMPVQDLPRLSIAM
UniProt Q9UIS9: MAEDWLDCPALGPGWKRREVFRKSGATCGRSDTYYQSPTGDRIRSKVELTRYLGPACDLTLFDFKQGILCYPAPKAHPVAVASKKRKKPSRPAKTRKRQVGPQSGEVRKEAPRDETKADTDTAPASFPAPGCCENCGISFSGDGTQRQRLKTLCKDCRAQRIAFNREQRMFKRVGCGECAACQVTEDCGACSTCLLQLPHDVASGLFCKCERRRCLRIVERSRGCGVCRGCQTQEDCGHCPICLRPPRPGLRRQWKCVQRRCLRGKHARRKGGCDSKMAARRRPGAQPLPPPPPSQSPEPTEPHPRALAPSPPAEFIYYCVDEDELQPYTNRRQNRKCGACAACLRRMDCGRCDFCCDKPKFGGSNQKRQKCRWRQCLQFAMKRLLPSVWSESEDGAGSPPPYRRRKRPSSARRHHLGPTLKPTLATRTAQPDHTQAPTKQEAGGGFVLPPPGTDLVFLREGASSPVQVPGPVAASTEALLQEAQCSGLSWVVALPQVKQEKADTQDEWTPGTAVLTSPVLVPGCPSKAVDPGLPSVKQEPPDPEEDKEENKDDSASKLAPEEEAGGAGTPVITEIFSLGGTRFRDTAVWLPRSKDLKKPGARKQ
UniProt Q9UHD2: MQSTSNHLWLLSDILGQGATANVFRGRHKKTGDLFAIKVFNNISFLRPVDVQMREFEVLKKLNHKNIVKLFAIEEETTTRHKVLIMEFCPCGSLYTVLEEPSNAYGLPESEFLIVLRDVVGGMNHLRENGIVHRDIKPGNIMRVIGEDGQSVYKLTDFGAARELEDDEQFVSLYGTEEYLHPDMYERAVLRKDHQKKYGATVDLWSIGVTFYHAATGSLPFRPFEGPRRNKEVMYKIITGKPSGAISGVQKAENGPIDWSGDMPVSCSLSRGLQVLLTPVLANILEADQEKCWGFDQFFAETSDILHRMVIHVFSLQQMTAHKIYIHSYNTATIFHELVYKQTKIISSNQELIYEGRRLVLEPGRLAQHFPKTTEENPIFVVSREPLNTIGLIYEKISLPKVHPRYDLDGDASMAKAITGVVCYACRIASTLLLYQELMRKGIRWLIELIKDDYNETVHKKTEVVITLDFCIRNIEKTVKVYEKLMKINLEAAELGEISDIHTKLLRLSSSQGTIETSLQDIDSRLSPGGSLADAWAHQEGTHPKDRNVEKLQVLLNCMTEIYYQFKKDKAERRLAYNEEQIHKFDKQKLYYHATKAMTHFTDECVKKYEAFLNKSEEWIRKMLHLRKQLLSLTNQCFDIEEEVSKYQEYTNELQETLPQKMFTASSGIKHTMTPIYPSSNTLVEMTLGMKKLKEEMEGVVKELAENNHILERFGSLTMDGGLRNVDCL
UniProt Q9UHR6: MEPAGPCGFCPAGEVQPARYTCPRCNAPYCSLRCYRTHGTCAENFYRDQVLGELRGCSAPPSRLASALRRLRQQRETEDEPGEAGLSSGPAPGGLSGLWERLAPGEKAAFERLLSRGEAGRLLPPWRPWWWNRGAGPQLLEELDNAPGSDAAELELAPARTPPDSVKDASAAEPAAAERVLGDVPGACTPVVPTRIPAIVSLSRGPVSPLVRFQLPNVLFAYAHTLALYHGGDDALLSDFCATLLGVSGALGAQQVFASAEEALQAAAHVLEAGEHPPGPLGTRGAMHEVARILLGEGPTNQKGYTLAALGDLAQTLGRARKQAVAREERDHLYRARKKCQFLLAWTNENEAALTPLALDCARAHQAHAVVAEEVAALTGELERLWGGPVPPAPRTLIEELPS

Compound: Nc1ncnc2c1ncn2[C@@H]1O[C@H](COP(=O)(O)OP(=O)(O)OP(=O)(O)O)[C@@H](O)[C@H]1O [adenosine triphosphate]
Test: NP40-soluble protein abundance relative to vehicle (solubility fold change) (ratio); higher = more soluble protein in presence of ATP
Method in brief: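 Jurkat crude lysate prepared with a Dounce homogeniser was treated at eight concentrations spanning 0.1 to 10 mM, 10 min at room temperature then 3 min at 37 °C. Solubilisation with 0.8% NP40 and benzonase and ultracentrifugation preceded TMT labelling of the supernatant for LC-MS/MS. Fold change against the detergent-processed vehicle was determined per replicate from vsn-normalised intensities, across three independent experiments.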

| Target | NP40-soluble protein abundance (concentration: 1mM) | NP40-soluble protein abundance (concentration: 2mM) | NP40-soluble protein abundance (concentration: 4mM) | NP40-soluble protein abundance (concentration: 6mM) | NP40-soluble protein abundance (concentration: 8mM) | NP40-soluble protein abundance (concentration: 10mM) |
| --- | --- | --- | --- | --- | --- | --- |
| HECTD1 (UniProt Q9ULT8) | 0.985 ± 0.015 | 0.986 ± 0.014 | 0.993 ± 0.035 | 0.974 ± 0.017 | 0.9749 ± 0.0087 | 0.989 ± 0.04 |
| UBQLN1 (UniProt Q9UMX0) | 0.899 ± 0.082 | 0.913 ± 0.084 | 0.909 ± 0.057 | 0.921 ± 0.09 | 0.853 ± 0.035 | 0.796 ± 0.065 |
| UniProt Q9UBU8-2 | 0.993 ± 0.054 | 1.02 ± 0.019 | 1.03 ± 0.022 | 1.07 ± 0.03 | 1.04 ± 0.03 | 1.04 ± 0.04 |
| POMP (UniProt Q9Y244) | 0.901 ± 0.079 | 0.9 ± 0.084 | 0.865 ± 0.076 | 0.906 ± 0.13 | 0.878 ± 0.049 | 0.814 ± 0.093 |
| CCNL1 (UniProt Q9UK58) | 1.07 ± 0.15 | 0.989 ± 0.012 | 0.8513 ± 0.0047 | 0.842 ± 0.076 | 0.813 ± 0.068 | 0.849 ± 0.035 |
| DPP7 (UniProt Q9UHL4) | 0.953 ± 0.037 | 1 ± 0.044 | 0.993 ± 0.026 | 0.947 ± 0.023 | 0.899 ± 0.012 | 0.959 ± 0.047 |
| NDUFA12 (UniProt Q9UI09) | 0.954 ± 0.023 | 0.9719 ± 0.0096 | 0.916 ± 0.067 | 0.933 ± 0.087 | 0.961 ± 0.079 | 0.954 ± 0.054 |
| UniProt Q9ULX6 and related entries | 0.947 ± 0.021 | 0.91 ± 0.034 | 0.9 ± 0.041 | 0.949 ± 0.12 | 0.928 ± 0.066 | 0.933 ± 0.027 |
| UVRAG (UniProt Q9P2Y5) | 1.05 ± 0.044 | 1 ± 0.028 | 0.968 ± 0.029 | 0.977 ± 0.042 | 1.03 ± 0.012 | 1.008 ± 0.0075 |
| DDX20 (UniProt Q9UHI6) | 0.969 ± 0.046 | 0.899 ± 0.058 | 0.915 ± 0.085 | 0.942 ± 0.21 | 0.956 ± 0.14 | 0.979 ± 0.12 |
| UniProt Q9UKW4 and related entries | 1.03 ± 0.073 | 1.02 ± 0.062 | 0.982 ± 0.053 | 0.961 ± 0.1 | 0.999 ± 0.074 | 0.981 ± 0.05 |
| AFF4 (UniProt Q9UHB7) | 1.1 ± 0.046 | 1.15 ± 0.015 | 1.18 ± 0.029 | 1.21 ± 0.031 | 1.19 ± 0.016 | 1.24 ± 0.042 |
| RUVBL1 (UniProt Q9Y265) | 1.13 ± 0.023 | 1.09 ± 0.02 | 1.08 ± 0.02 | 1.1 ± 0.038 | 1.16 ± 0.054 | 1.15 ± 0.073 |
| UniProt Q9UBS9 and related entries | 0.986 ± 0.099 | 0.93 ± 0.12 | 0.957 ± 0.17 | 0.999 ± 0.14 | 0.929 ± 0.19 | 0.953 ± 0.1 |
| UniProt Q9UL40 and related entries | 1.03 ± 0.071 | 1.05 ± 0.036 | 1.13 ± 0.06 | 1.18 ± 0.11 | 1.23 ± 0.12 | 1.24 ± 0.13 |
| UniProt Q9UBS8 and related entries | 1.03 ± 0.03 | 0.982 ± 0.059 | 0.998 ± 0.051 | 0.998 ± 0.044 | 0.991 ± 0.044 | 0.995 ± 0.026 |
| UniProt Q9Y237 and related entries | 0.937 ± 0.052 | 0.939 ± 0.05 | 0.916 ± 0.032 | 0.955 ± 0.018 | 0.927 ± 0.021 | 0.881 ± 0.054 |
| TUBE1 (UniProt Q9UJT0) | 1.01 ± 0.077 | 1 ± 0.07 | 1.01 ± 0.062 | 1.02 ± 0.057 | 1.07 ± 0.063 | 1.03 ± 0.06 |
| PRPF19 (UniProt Q9UMS4) | 1 ± 0.056 | 0.999 ± 0.016 | 1.01 ± 0.013 | 1.05 ± 0.018 | 1.07 ± 0.012 | 1.11 ± 0.05 |
| UniProt Q9UKX7 and related entries | 1.09 ± 0.047 | 1.09 ± 0.018 | 1.08 ± 0.026 | 1.15 ± 0.033 | 1.09 ± 0.014 | 1.08 ± 0.021 |
| UniProt Q9ULU4 and related entries | 1.08 ± 0.015 | 1.07 ± 0.052 | 1.1 ± 0.05 | 1.14 ± 0.13 | 1.12 ± 0.076 | 1.14 ± 0.068 |
| PFDN2 (UniProt Q9UHV9) | 0.89 ± 0.088 | 0.897 ± 0.092 | 0.885 ± 0.048 | 0.97 ± 0.12 | 0.841 ± 0.022 | 0.829 ± 0.069 |
| PLAA (UniProt Q9Y263) | 0.979 ± 0.035 | 0.987 ± 0.049 | 0.967 ± 0.019 | 0.948 ± 0.075 | 0.95 ± 0.016 | 0.956 ± 0.032 |
| UniProt Q9UIS9 and related entries | 1.05 ± 0.071 | 1.1 ± 0.08 | 1.16 ± 0.16 | 1.2 ± 0.14 | 1.19 ± 0.16 | 1.17 ± 0.12 |
| TBK1 (UniProt Q9UHD2) | 1 ± 0.084 | 0.965 ± 0.06 | 0.968 ± 0.056 | 0.929 ± 0.086 | 1.01 ± 0.05 | 0.95 ± 0.048 |
| ZNHIT2 (UniProt Q9UHR6) | 0.909 ± 0.027 | 0.965 ± 0.12 | 0.944 ± 0.12 | 0.971 ± 0.048 | 0.983 ± 0.086 | 0.941 ± 0.035 |

Complete entries, quoted from the list. Values in the order: NP40-soluble protein abundance (concentration: 1mM) | NP40-soluble protein abundance (concentration: 2mM) | NP40-soluble protein abundance (concentration: 4mM) | NP40-soluble protein abundance (concentration: 6mM) | NP40-soluble protein abundance (concentration: 8mM) | NP40-soluble protein abundance (concentration: 10mM)
RUVBL1 (UniProt Q9Y265) as listed: 1.13 ± 0.023 | 1.09 ± 0.02 | 1.08 ± 0.02 | 1.1 ± 0.038 | 1.16 ± 0.054 | 1.15 ± 0.073
AFF4 (UniProt Q9UHB7) as listed: 1.1 ± 0.046 | 1.15 ± 0.015 | 1.18 ± 0.029 | 1.21 ± 0.031 | 1.19 ± 0.016 | 1.24 ± 0.042
